This data set in a line: in vitro. To be noted: mouse.

Consider `CCCCc1oc2ccccc2c1C(=O)c1cc(I)c(OCCN(CC)CC)c(I)c1` [amiodarone], for which the CC50 was 6.3 µM.
